Some entries share one result that the patent states for a list of compounds.
Experiment: Metabolic stability using human liver microsomes
Assay type: in vitro ADME

Cc1cc(N2C(=O)NC(=O)C23CCN(C)CC3)cc(C)c1CCS(=O)(=O)N1CCC2(CC1)N=C(c1ccc(OC(F)(F)F)cc1)NC2=O [Compound 9, 1-(3,5-dimethyl-4-(2-((4-oxo-2-(4-(trifluoromethoxy)phenyl)-1,3,8-triazaspiro[4.5]deca-1-en-8-yl)sulfonyl)ethyl)phenyl)-8-methyl-1,3,8-triazaspiro[4.5]decane-2,4-dione]
metabolic stability against human liver microsomes in comparison to Comparative Examples 1 to 6 (in words): high metabolic stability
